End groups of sequences in plain letters are not given here.

Experimental findings from US20110092445A1 (Abbott Laboratories, priority 2008, published 2011) are described below.

The nature of the series: general procedure: Fmoc solid-phase peptide synthesis; Fmoc-Ala-PEG polystyrene resin, Fmoc-Ala-Wang resin, Rink amide MBHA resin; HATU/DIEA (Pioneer); HBTU/HOBt/DIEA (433). The conditions noted are these: whole synthesis, scale 100 umol.

In the case of “MDAEFRHDSGYEVHHQKCVFFAEDVGSNKGAIIGCMVGGVVIA”, the crude mass came out at 0.319 g, the crude yield amounted to 62.6%, the isolated mass was 0.0274 g and the isolated yield worked out at 8.5%.
